Over roughly 33,000 sequences, “E-score (-0.5 to 0.5)” has its median near -0.015; the highest 2% begin near 0.3. Some of the results follow.
biological target: T1, Abf1 (UniProt P14164); experiment: PBM E-score (8-mer binding enrichment) (E-score (-0.5 to 0.5)); higher = stronger / more preferred TF binding; conditions: protein concentration: 200 nM; construct: GST-full length
T1 sequence: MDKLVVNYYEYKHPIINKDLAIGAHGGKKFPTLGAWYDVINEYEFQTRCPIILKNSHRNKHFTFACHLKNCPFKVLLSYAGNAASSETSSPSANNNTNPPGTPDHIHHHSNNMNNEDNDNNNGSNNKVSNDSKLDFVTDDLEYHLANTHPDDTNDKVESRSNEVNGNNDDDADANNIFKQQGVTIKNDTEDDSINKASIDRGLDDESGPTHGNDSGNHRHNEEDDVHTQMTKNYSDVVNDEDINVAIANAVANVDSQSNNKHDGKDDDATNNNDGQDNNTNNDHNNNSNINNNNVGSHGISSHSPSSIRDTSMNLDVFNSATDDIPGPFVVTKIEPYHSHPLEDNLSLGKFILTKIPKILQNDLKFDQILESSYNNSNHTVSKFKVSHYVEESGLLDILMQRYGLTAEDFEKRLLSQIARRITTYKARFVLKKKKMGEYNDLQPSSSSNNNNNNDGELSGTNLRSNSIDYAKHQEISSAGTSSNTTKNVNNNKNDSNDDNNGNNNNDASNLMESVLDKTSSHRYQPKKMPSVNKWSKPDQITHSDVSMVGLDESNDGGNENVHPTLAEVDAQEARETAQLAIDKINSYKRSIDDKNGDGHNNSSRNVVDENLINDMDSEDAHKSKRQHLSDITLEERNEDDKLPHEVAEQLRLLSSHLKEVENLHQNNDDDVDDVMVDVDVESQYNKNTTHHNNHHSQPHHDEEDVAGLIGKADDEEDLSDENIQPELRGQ
Summary of the method: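 PURExpress in vitro transcription/translation supplied GST-tagged yeast transcription factors, either full-length or DNA-binding domain. Applied at about 100-200 nM to universal all-10-mer Agilent arrays double-stranded by primer extension, the bound protein was detected with fluorescent anti-GST. E-scores, modified Wilcoxon-Mann-Whitney statistics, were given by the Universal PBM Analysis Suite to ungapped eight-base words pooled with their reverse complements after masliner normalisation.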

Sequence | PBM E-score
CTTCGAAC | 0.0964
TATAGGAA | -0.00961
GCCACTCA | 0.0322
GACTCACC | -0.125
ATTGCAAT | 0.0939
ATCGACAA | 0.0583
AGTACCCC | -0.19
AGGATGGA | -0.123
ATATTAGG | 0.211
AGCATGTC | -0.0399
GGATAACA | 0.0228
ACGTTCAA | 0.155
GCCTATCC | -0.182
CCCTAGAG | -0.106
ATCAAAGA | 0.0583
GATTCGGC | -0.0444
TAACGACA | 0.31
GTAGCTCA | 0.0118
ATGGTAGG | -0.06
GCGCGAAC | -0.205
ATTGTGCC | -0.123
AGTGGTAG | -0.0986
CAAAGTCG | 0.0944
CTTAGGGC | -0.183
ACCGAAAC | -0.0897

Sequence | PBM E-score
TCCAACGA | 0.293
CAGTACGA | 0.282
CTAGATTA | -0.00126
TAGTTCGA | 0.119
CTACGCCC | -0.168
CTATAAAC | 0.00144
AACGGGAT | -0.108
CGTTTTAC | 0.147
AGTAGGGC | -0.0942
CCACCAGG | -0.383
ACCCTTTG | -0.24
ACGTCGCC | 0.126
GTCCTAAA | 0.106
ACCGGGGG | -0.269
ATTAAATC | 0.142
GTATAATA | 0.299
ATTGATTA | 0.183
GTGAGTAA | 0.00676
CGTGTTAC | 0.0932
AGGGCATA | -0.0418
GTGTACAC | 0.0844
TACAGGCA | 0.119
AATAATAC | 0.233
CCTGTCTC | -0.123
AAGTGCAC | 0.0382

Sequence | PBM E-score
AGATCATG | 0.262
ACGCCGGG | -0.0153
ACCCAGCT | -0.0896
CAATGTAG | -0.136
GACGTAGA | 0.0745
AGGTCACC | 0.282
AGCCAGAG | -0.0331
CTCCGTAC | 0.22
CGATAAAG | 0.228
AGTCATGA | 0.149
ACACGCTA | -0.0294
GCGACTTA | -0.0826
ACACTCGC | 0.113
ACAGAGAC | 0.0071
CGCTAAGC | 0.109
AGTCATTA | 0.037
AGGACTGA | 0.00596
GCCAATCA | -0.138
GAGGCAGC | -0.302
GAGTTGGA | -0.0192
GACATCCA | -0.0512
GTAGGTCA | 0.0845
CGGTGGTA | 0.025
CATATCGC | 0.253
GGGGGAAC | -0.408

Sequence | PBM E-score
ACCTGCAC | -0.109
AAACCACG | 0.0243
CCCGAGAC | -0.0393
GAAATTGC | -0.0782
GGTTACAC | 0.11
ATTTGACG | 0.2
ATCAGATG | -0.104
GAACCCAA | 0.103
GCAACTCC | -0.257
CCTCCCTC | -0.157
AATGCGGC | -0.00373
CGTGATAC | 0.23
GGATCTCA | 0.0604
GTATGGGA | 0.0144
AGGTAGAC | -0.249
ATAGGGTC | -0.135
GACTTCTC | 0.167
CATTGTCA | 0.185
CGAAAGCA | 0.0505
TGCACCCA | 0.0213
CAACGTGG | 0.0349
CCAACCCC | -0.224
ACCATTAC | 0.0428
TATATCGA | 0.171
GAGCGGAC | -0.162

Sequence | PBM E-score
ATTCACTA | -0.00796
GTGTACCA | 0.125
CCAGGACC | -0.2
CTCGCGTA | -0.194
GATGTGGC | -0.167
ATCTGGGG | -0.181
AAAGCCCT | -0.187
GCGTCCCA | -0.0154
TAGTATAA | 0.269
CGTAAGAC | 0.104
AACCTCCG | -0.13
TGAAACAA | 0.0794
TACGCAGA | 0.00755
CCCTGAGA | -0.214
ATCCATGC | -0.0117
CCAACGTA | 0.2
GGACAACC | -0.0223
CGAGGCCC | -0.159
CTAACGAC | 0.263
AAGATCCG | -0.132
GGTTTAGA | -0.152
ACTGTGCC | -0.0642
ATACGGCA | 0.376
AACACTAG | 0.151
ACGTGTAT | 0.0345

Laid out differently: results already given.
GTGTACCA
  PBM E-score = 0.125
CCAGGACC
  PBM E-score = -0.2
CCCTGAGA
  PBM E-score = -0.214
GGACAACC
  PBM E-score = -0.0223

Next part.

Sequence | PBM E-score
CTAGATAA | 0.109
ATCCTCTG | -0.0885
AATTGCAT | -0.017
CCGCGCTA | 0.0165
ATATCAAT | 0.204
ACATCTGA | -0.0545
GCGATACA | 0.139
ATGGCCCC | -0.268
CGAAGTAA | 0.0902
AGGGATGA | 0.0956
CAGAATTA | -0.156
CAGTGGCA | -0.234
GTTCCATA | -0.104
CAGCAAGG | -0.192
GAGGAAGA | -0.0536
ACAAATGT | 0.201
AAATTTCC | 0.075
AGTAGGAT | 0.0637
AGCTGCAT | -0.0357
CACCTACG | 0.0432
ATACTAGA | 0.17
TTCCAAAA | 0.0928
AACGACTG | 0.114
CGCGGGTA | -0.0614
ATGAGTTA | 0.0988

Sequence | PBM E-score
ACCTAGTA | -0.0833
AAGATAAG | 0.131
ACCTATCA | -0.021
CACGGCGG | 0.00732
CTATACGA | 0.327
ATATGCTC | 0.135
ATACGCAT | 0.0882
TTCTGCAA | 0.111
AAGGCCCA | -0.0881
AGATCGTG | 0.273
CACGCATG | 0.00322
CCTGGTCA | -0.0612
AATCATCT | 0.184
AAGACTTA | 0.0156
AACCGAAA | 0.0684
AGTCTGCC | -0.231
AGACCTGC | -0.137
CATACCGA | -0.038
CCCCCAGC | -0.331
GGTCCCAA | -0.136
CGACTGGA | -0.0586
TCTGCCAA | 0.0381

— the supplement of paper PMC3334620
